Results from publication PMC8418606.

Sequences of proteins named here, by UniProt entry; tags and fusion partners are left off. A change or cut given only in a name is not applied to a line headed by its entry.
UniProt P46531: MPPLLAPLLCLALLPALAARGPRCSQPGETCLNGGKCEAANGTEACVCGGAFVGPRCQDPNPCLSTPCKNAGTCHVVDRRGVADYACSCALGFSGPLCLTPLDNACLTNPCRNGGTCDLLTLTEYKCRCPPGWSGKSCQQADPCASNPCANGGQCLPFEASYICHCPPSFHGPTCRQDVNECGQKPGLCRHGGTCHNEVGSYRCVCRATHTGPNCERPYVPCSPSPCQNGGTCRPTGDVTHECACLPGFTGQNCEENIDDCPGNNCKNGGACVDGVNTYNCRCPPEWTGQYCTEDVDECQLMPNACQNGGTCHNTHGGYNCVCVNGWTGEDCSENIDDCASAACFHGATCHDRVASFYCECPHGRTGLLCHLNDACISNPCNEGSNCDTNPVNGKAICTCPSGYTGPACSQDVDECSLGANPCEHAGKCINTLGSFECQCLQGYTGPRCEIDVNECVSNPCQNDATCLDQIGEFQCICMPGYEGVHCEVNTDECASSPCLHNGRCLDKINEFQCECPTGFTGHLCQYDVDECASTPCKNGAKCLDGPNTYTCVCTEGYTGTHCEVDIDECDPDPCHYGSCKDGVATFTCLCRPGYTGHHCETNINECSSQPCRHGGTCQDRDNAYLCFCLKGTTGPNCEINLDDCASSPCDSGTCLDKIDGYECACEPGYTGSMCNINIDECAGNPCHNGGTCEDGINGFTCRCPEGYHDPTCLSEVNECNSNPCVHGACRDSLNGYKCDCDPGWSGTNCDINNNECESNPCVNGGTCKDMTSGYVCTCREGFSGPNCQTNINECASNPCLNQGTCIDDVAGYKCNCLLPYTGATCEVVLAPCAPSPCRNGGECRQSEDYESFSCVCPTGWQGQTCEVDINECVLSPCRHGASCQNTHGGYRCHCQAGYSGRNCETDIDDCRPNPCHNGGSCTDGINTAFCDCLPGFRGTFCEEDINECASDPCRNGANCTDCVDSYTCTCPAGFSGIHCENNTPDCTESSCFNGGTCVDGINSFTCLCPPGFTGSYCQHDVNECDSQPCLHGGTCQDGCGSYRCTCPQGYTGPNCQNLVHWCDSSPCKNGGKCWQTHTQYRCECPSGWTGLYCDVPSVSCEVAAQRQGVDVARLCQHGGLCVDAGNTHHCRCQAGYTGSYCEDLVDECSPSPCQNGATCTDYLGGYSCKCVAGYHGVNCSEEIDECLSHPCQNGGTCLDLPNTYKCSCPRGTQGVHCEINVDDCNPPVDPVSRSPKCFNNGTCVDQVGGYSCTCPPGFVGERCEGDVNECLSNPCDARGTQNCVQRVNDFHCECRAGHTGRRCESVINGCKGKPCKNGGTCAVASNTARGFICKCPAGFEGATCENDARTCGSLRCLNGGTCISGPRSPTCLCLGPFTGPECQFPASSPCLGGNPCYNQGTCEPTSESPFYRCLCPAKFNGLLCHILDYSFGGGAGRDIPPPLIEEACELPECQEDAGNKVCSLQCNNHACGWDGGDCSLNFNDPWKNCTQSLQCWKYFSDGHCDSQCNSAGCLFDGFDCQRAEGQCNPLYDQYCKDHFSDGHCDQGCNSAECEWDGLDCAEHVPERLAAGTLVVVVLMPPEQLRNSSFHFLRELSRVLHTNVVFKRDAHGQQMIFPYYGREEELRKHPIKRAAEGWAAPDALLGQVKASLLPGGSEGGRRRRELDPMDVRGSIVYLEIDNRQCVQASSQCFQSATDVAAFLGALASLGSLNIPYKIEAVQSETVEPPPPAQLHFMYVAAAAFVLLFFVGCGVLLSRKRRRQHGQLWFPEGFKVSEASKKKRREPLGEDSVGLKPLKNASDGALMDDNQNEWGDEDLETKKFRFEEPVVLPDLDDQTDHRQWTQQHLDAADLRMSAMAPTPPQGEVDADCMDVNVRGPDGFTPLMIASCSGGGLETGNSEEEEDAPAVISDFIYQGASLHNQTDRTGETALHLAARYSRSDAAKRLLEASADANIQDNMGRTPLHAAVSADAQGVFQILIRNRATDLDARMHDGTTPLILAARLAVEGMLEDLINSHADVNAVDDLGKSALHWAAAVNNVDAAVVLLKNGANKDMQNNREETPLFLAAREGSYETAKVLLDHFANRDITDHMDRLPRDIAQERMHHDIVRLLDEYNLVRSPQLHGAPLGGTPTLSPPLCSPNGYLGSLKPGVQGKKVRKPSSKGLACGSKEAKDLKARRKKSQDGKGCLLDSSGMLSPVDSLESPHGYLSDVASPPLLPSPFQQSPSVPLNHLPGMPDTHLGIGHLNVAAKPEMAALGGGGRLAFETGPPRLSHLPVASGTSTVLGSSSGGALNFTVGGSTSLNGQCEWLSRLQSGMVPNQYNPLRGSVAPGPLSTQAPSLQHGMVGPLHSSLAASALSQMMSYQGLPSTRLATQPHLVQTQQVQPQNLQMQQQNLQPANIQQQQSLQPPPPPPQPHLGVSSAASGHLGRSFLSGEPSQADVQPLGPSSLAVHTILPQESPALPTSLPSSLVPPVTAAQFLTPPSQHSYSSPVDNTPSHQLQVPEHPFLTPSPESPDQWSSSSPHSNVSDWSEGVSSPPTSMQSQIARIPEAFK
UniProt Q09472: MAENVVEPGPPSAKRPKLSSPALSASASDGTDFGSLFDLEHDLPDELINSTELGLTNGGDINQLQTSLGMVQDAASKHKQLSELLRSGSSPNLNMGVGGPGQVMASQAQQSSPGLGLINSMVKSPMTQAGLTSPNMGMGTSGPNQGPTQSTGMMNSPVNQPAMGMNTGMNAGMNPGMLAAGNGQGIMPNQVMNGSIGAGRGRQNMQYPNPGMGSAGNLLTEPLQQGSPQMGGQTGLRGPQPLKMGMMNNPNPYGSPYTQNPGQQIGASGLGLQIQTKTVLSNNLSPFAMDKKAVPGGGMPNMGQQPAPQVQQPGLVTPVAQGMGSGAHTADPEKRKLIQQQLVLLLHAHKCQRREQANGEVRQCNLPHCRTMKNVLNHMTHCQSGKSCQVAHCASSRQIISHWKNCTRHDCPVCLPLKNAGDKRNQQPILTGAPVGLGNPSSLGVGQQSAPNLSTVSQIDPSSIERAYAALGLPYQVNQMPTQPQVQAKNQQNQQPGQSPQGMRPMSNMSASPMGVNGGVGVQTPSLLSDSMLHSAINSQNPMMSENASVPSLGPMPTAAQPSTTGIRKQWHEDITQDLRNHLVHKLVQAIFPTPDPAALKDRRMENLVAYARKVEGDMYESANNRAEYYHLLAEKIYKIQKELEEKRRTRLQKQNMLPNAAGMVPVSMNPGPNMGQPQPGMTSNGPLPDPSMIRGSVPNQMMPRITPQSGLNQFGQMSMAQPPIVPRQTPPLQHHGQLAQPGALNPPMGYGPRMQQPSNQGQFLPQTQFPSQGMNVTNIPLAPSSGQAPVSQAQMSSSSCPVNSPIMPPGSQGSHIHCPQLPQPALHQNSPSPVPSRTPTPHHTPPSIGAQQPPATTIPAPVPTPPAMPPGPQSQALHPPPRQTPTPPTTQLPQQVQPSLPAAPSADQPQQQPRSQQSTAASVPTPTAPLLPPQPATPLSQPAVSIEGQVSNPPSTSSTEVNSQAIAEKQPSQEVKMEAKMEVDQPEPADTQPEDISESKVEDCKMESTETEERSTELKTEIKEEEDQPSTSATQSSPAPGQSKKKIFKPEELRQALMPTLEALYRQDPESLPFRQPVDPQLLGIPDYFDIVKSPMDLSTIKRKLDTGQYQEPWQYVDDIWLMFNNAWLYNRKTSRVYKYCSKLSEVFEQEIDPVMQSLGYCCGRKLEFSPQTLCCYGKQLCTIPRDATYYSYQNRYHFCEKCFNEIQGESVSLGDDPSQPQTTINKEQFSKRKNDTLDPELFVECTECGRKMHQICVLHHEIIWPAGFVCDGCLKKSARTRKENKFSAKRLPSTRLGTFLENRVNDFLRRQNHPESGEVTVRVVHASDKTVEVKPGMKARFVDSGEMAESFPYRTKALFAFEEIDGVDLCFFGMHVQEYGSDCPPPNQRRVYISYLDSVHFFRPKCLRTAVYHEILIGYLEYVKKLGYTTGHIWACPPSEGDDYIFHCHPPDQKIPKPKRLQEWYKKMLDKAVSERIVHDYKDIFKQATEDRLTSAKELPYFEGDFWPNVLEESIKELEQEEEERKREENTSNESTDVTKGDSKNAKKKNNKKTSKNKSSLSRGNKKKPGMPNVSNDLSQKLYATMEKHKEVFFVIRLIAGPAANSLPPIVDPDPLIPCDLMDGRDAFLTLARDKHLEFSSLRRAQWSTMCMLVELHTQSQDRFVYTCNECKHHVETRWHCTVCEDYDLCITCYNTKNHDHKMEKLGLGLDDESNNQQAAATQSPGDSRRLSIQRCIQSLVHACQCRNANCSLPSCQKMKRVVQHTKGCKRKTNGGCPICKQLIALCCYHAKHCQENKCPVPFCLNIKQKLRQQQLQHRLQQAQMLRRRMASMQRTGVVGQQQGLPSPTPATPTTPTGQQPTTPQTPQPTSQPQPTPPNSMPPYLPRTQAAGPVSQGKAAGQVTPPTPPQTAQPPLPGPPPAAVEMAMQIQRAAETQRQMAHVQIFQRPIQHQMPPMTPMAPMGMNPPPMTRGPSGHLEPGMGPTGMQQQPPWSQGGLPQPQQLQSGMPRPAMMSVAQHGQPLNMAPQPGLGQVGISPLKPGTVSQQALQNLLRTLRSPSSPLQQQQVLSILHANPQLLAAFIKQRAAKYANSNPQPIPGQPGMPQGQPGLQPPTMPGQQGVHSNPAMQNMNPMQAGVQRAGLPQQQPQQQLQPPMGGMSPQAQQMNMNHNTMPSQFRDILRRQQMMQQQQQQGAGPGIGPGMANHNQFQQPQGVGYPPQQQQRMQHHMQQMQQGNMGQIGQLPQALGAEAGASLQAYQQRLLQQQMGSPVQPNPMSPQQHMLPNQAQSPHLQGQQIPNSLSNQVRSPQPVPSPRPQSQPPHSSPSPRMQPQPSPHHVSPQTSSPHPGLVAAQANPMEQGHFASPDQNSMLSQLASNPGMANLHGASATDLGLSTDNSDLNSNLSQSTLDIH
UniProt Q9GZV5: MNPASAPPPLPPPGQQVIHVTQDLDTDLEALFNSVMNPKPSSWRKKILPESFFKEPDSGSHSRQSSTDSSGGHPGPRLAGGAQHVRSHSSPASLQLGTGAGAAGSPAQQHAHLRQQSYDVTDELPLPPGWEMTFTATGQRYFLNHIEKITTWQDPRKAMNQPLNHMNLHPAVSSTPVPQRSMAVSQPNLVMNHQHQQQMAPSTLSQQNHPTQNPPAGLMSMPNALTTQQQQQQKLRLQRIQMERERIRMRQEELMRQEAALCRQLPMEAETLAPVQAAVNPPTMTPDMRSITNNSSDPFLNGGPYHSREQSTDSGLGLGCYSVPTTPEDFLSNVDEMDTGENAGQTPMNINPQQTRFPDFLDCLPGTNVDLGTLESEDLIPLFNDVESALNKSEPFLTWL
UniProt Q92831: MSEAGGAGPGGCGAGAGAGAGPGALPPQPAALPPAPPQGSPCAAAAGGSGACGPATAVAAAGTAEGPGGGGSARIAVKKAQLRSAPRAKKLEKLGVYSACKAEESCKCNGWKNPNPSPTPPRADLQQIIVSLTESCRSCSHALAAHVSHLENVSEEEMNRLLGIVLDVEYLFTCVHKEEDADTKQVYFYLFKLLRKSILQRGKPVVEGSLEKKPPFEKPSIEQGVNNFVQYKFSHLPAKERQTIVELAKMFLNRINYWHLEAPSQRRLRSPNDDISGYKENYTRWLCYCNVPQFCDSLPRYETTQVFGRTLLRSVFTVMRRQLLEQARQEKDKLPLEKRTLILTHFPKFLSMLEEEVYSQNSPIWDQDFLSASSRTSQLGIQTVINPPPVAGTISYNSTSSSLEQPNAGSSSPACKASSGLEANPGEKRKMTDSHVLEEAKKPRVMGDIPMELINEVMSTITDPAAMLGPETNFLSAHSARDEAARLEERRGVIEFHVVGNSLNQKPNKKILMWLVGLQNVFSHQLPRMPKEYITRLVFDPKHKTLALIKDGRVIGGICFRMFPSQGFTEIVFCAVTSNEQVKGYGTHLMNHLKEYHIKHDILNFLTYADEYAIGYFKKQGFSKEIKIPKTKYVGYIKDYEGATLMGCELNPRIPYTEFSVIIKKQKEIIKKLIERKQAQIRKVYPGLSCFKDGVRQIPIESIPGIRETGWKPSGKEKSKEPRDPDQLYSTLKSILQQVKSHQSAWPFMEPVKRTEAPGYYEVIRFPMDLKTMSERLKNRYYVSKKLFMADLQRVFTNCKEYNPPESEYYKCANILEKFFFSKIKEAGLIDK

Target: FLAG-tagged Notch1 (UniProt P46531)
Test: affinity purification with mass spectrometry; cellular extracts of A549 cells stably expressing FLAG (control) or FLAG-Notch1, anti-FLAG affinity columns, eluted with FLAG peptide; SDS-PAGE, silver stain, differential bands analysed by mass spectrometry

binding | Substance
binds | histone acetyltransferase p300 (from UniProt Q09472 1-2414) (enzyme)
binds | transcriptional coactivator with PDZ-binding motif (TAZ) (from UniProt Q9GZV5 1-400)
binds | p300/CBP-associated factor (pCAF) (from UniProt Q92831 1-832) (enzyme)

These are yes or no findings as the source states them, for the method shown. In cells and extracts the contact can be indirect. Here binding means that the protein was enriched with, or labelled near, the bait; the list need not be complete.
